# Paper PMC7819943, “Rice protein-binding microarrays: a tool to detect cis-acting elements near promoter regions in rice”
# Protein sequences, listed by entry. Tags and fused reporters are not part of them.
# UniProt Q0JBA9, entry or part of it: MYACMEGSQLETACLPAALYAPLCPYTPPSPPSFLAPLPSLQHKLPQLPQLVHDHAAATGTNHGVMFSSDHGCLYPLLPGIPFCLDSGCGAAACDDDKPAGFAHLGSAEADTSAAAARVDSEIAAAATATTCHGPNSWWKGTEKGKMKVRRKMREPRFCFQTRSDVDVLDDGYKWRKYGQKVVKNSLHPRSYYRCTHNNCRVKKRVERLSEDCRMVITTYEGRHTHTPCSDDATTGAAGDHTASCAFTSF
# The other results are listed elsewhere or left out.
# Target: OsWRKY34 (Oryza sativa, UniProt Q0JBA9 1-250)
# Assay: protein-binding microarray (RPBM); PBS, 2% BSA, 51.3 ng/ul salmon testes DNA, 50 uM zinc acetate, 200 nM TF, 25 C, 1 h; high values mean tight binding
# Details: protein: recombinant; tags: N-terminal polyhistidine and DsRed monomer fusion (pET32a); label: CyDye5-dUTP incorporated in the synthesized complementary strand; 3' TTTTT single-stranded linker to array surface; dsDNA, one strand shown
# Method in brief: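 Transcription factors, each fused N-terminally to a polyhistidine tag and DsRed, were expressed in E. coli BL21-CodonPlus and purified on Ni–NTA. A custom Agilent array was made double-stranded by primer extension with Cy5-dUTP and blocked with 2% BSA. It was incubated with 200 nM protein in PBS, 2% BSA, salmon testes DNA and 50 µM zinc acetate at 25 °C for 1 h, then washed. The binding signal is per-feature fluorescence intensity (arbitrary units) read on an Axon 4000B scanner.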
row,Sequence,binding signal
1,AGTAGAGTGCTGGTTGTCCTACTCCTCTGCATGCTTTTTTCGGAGTCACCTAGTGCAG,12400 fluorescence intensity (a.u.)
2,AAAACTGCCGTACGTCACATCCTATTTCCGTTTAAATTTCCGGAGTCACCTAGTGCAG,11000 fluorescence intensity (a.u.)
3,TCCCCTTGTACAGCTGTAATACTCCACTTCCACCTAGCGCCGGAGTCACCTAGTGCAG,8590 fluorescence intensity (a.u.)
4,AAAACAAGTACGGTACTCTCAACTCGCTAGTCTCAACTTACGGAGTCACCTAGTGCAG,8580 fluorescence intensity (a.u.)
5,TTTTAAAACTGCTGGGATTTTGCTTTCTGTTTCTTCAATGCGGAGTCACCTAGTGCAG,10900 fluorescence intensity (a.u.)
6,GATTCTCGTCCCAGATCCGCCACTCCCTTCCCCAATTCGCCGGAGTCACCTAGTGCAG,8210 fluorescence intensity (a.u.)
7,AGGTGACTCACTCACTTTTCCGGCTTCTTCTCTTCTTTCCCGGAGTCACCTAGTGCAG,10200 fluorescence intensity (a.u.)
8,GCTTGTCCACTTCGTTAATTTTTGTTAATTTAGTGCTCGACGGAGTCACCTAGTGCAG,9690 fluorescence intensity (a.u.)
9,ACCGCGCCATCAACTCCTCCTTGAGGTCCTCTTCAAAACCCGGAGTCACCTAGTGCAG,10100 fluorescence intensity (a.u.)
10,CCAGGTGGTTCCTTGCTCTGCGTCTTCCTTCAAACCGTATCGGAGTCACCTAGTGCAG,9260 fluorescence intensity (a.u.)
11,TCATGATGAATCGGGGTGGTGGAGGTTTGCTTGTTATGGTCGGAGTCACCTAGTGCAG,11000 fluorescence intensity (a.u.)
12,TACCCCGCGAGACAATGACACATCATCTCACGAGAAGTTACGGAGTCACCTAGTGCAG,8400 fluorescence intensity (a.u.)
13,TCCTTTATTTATGTGGTCCTCATGGTCAGTCATGTGCACACGGAGTCACCTAGTGCAG,8270 fluorescence intensity (a.u.)
14,ACCATCACATGTCACCACCACTCATGGTCTCATCTTTTCGCGGAGTCACCTAGTGCAG,8230 fluorescence intensity (a.u.)
15,ACTTGGTTTGGTGGAGTTTGTGTGTTTATTGCTTTCCTTCCGGAGTCACCTAGTGCAG,11400 fluorescence intensity (a.u.)
16,TTGCCAACGCTACAATATATAGGCTGTGTTTAGTTCCACACGGAGTCACCTAGTGCAG,8040 fluorescence intensity (a.u.)
17,CGTTAGCTAAGATAGTACTCATATTATGTTTCAGAATATACGGAGTCACCTAGTGCAG,8130 fluorescence intensity (a.u.)
18,ACTTCTGTCGATCGCCGCGGCACACCATCAATCACACGTACGGAGTCACCTAGTGCAG,8090 fluorescence intensity (a.u.)
19,CTCTCCTCCACATCATCACTCAATCCAATGTGGCATTCTTCGGAGTCACCTAGTGCAG,8150 fluorescence intensity (a.u.)
20,TTCCGTACTTTGAACCATCTCCGTACATACTTGTAAAGTTCGGAGTCACCTAGTGCAG,8500 fluorescence intensity (a.u.)
21,GCAAATTAGGTAGTTCATGCAAATGCTTCCATGCCTTCGTCGGAGTCACCTAGTGCAG,8380 fluorescence intensity (a.u.)
22,TCTAGCGTTTGACCGTCCGTCTTATATGAAATTTTTTTGTCGGAGTCACCTAGTGCAG,8540 fluorescence intensity (a.u.)
23,GGGAAACGGAAACCTAGCCGCCACGCTAAGCATCTCGTCTCGGAGTCACCTAGTGCAG,8110 fluorescence intensity (a.u.)
24,ATCGTCGTCTCTCCACCTCTCGCGTTAGCTACTATATATCCGGAGTCACCTAGTGCAG,11200 fluorescence intensity (a.u.)
25,GATTAATATTCTATGCGTGACTTGTCTTTTTAATTTTTTTCGGAGTCACCTAGTGCAG,8950 fluorescence intensity (a.u.)
26,ATTGCCACCTATAAAATGGGCTTAGGTTAGATGTTGTGTTCGGAGTCACCTAGTGCAG,8940 fluorescence intensity (a.u.)
27,TCCACTGCTTGCTGTCGATCGAGTGGAAGAGGCGGGCGGGCGGAGTCACCTAGTGCAG,10200 fluorescence intensity (a.u.)

# Random excerpt: three entries already listed, in no set order.
row,Sequence,binding signal
2,AAAACTGCCGTACGTCACATCCTATTTCCGTTTAAATTTCCGGAGTCACCTAGTGCAG,11000 fluorescence intensity (a.u.)
12,TACCCCGCGAGACAATGACACATCATCTCACGAGAAGTTACGGAGTCACCTAGTGCAG,8400 fluorescence intensity (a.u.)
6,GATTCTCGTCCCAGATCCGCCACTCCCTTCCCCAATTCGCCGGAGTCACCTAGTGCAG,8210 fluorescence intensity (a.u.)

# Next entries

row,Sequence,binding signal
1,GGGCTCCTCAATATATGGGCTTGAACATTTTTCTCATTTTCGGAGTCACCTAGTGCAG,8140 fluorescence intensity (a.u.)
2,TCTGTACTTTATTTTTATGGTTGGATGCAAATATAAGGGGCGGAGTCACCTAGTGCAG,11700 fluorescence intensity (a.u.)
3,CATCTTTTGCATTTGTACTAATATGTTATGTTTGAGTATACGGAGTCACCTAGTGCAG,8770 fluorescence intensity (a.u.)
4,GTAGCTGAAGTGAGTGGGGAGTTGACTTGGGAAGATGACTCGGAGTCACCTAGTGCAG,9910 fluorescence intensity (a.u.)
5,AACCAATTCAGTCAGATACATCGCGTACCTTTCACATTATCGGAGTCACCTAGTGCAG,9700 fluorescence intensity (a.u.)
6,GGTGTATTTTATCGGCATACTCAATATACACGAAGGCAAACGGAGTCACCTAGTGCAG,8080 fluorescence intensity (a.u.)
7,CATGGTATTTGTCTCTTTTAATTTTCACCCTCTGGGTTGCCGGAGTCACCTAGTGCAG,12700 fluorescence intensity (a.u.)
8,AAATACAGGATATAAACGGACGTGTGGTCTCGTGGATCGGCGGAGTCACCTAGTGCAG,10700 fluorescence intensity (a.u.)
9,AACATATGAAGTTCTGACTCTGCTGTGTTTTACTTCATATCGGAGTCACCTAGTGCAG,8510 fluorescence intensity (a.u.)
10,AATGGTGTTGTTCTGTTTCTACCTTTTATTCAGGTGCTCGCGGAGTCACCTAGTGCAG,16200 fluorescence intensity (a.u.)
11,ACACGATGGCCATCCTTCATCAGATTCTAGTGCGATCATCCGGAGTCACCTAGTGCAG,8290 fluorescence intensity (a.u.)
12,CTTTAATGCTTATCACAAGAACTGGTGGTATATGTGACTCCGGAGTCACCTAGTGCAG,9340 fluorescence intensity (a.u.)
13,GGATTGGGATTTTTGGGAGGGGAGGAGAGGAACCCTAATCCGGAGTCACCTAGTGCAG,10600 fluorescence intensity (a.u.)
14,GTGAAGCTGACATGTGGGTTTTATAGGTTTTTTTTTTCAGCGGAGTCACCTAGTGCAG,11000 fluorescence intensity (a.u.)
15,TTTACACTTCAATTCTTATCAGAATCCTGTCTTTTTTATACGGAGTCACCTAGTGCAG,8180 fluorescence intensity (a.u.)
16,ACTCCCTTGCTTTTTCTCGCTATCAATCACAATAATCCAACGGAGTCACCTAGTGCAG,9590 fluorescence intensity (a.u.)
17,GTTGTAATGGGTACTTTGTGATCTCATCCGTTGGAATAACCGGAGTCACCTAGTGCAG,8450 fluorescence intensity (a.u.)
18,CTTTCTTTGTTTTTTTAAAATATGTTTATAGCTAGCTTATCGGAGTCACCTAGTGCAG,8930 fluorescence intensity (a.u.)
19,GTCGCTTTACTAATTATTACTACTCATGCTTACTTTTTACCGGAGTCACCTAGTGCAG,13200 fluorescence intensity (a.u.)
20,CGGCCTGTACGATTTACCTGTTGGTTCGGTCGCTCCGTTCCGGAGTCACCTAGTGCAG,8840 fluorescence intensity (a.u.)
21,AAATATATGATCCATCACATCCTATAATATATTCACTCTCCGGAGTCACCTAGTGCAG,8590 fluorescence intensity (a.u.)
22,AGCAACTGGGTGGGGCGACGACGGGGATGGGTGGCAAACTCGGAGTCACCTAGTGCAG,12800 fluorescence intensity (a.u.)
23,TTTTTATGTGTACTTTTATCTATAACTTATTAGAGACTTGCGGAGTCACCTAGTGCAG,14100 fluorescence intensity (a.u.)
24,CCTGCTTAAACCCTCTATTCGTCTTCTCCAAGCAAAACCACGGAGTCACCTAGTGCAG,8380 fluorescence intensity (a.u.)
25,AGAGTTCTTTCACTGTCTCTTGTCTCTTTCGTTGATAGTCCGGAGTCACCTAGTGCAG,8960 fluorescence intensity (a.u.)
26,TGCGGCGGGCGGGCGAGACGACGAGCGATCGAATATCCTCCGGAGTCACCTAGTGCAG,8020 fluorescence intensity (a.u.)
27,TACTTGCACCCATCATCCACCACATCCATCTGATATAACTCGGAGTCACCTAGTGCAG,9680 fluorescence intensity (a.u.)
